Measurements: PubChem BioAssay AID2685 (National Center for Advancing Translational Sciences (NCATS), 2010)
The other results are listed elsewhere or left out. These are further read-outs of the screen, such as a control signal, another cell line or another target. No call is given for them. Compounds called inactive in the main read-out are mostly missing here. Words in brackets tell the shape of the fitted curve; partial curves, single points and poor fits give uncertain potencies.

Assay: qHTS Assay for Lipid Storage Modulators in Drosophila S3 Cells;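 as to cell number change: cells counted by Cell Tracker Red CMTPX staining in the red channel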
Settings: BODIPY lipid droplet fluorescence, 18-24 h; for cell number change: measured here: cell count max response, cells fed with added oleic acid
How it was run: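 Drosophila S3 cells got compounds at several concentrations plus oleic acid (400 uM solution). Laser-scanning cytometry with 488 nm excitation read lipid droplets at 500-530 nm and cells at 575-640 nm. Percent activity was relative to 20 uM Triacsin C.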

[1] = measured here: lipid fluorescence (Fed channel) AC50, cells fed with added oleic acid
[2] = measured here: cell number channel AC50, cells fed with added oleic acid

SMILES | AC50 [1] | cell number change | AC50 [2]
N#Cc1ccccc1Sc1ccccc1C(=O)OCC(N)=O | 0.651 µM [rising, single point] | – | –
CCOC(=O)C1CCN(c2ccc([N+](=O)[O-])c(C(C)=O)c2)CC1 | – | -11.4% | –
COc1cc(NS(=O)(=O)c2ccc(NC(=S)NC(=O)C(C)(C)C)cc2)nc(OC)n1 | 16.4 µM [falling, partial curve] | -108% | 25.9 µM [falling, partial curve]
CCOc1ccc(Nc2c3ccccc3nc3ccccc23)cc1 | 20.6 µM [falling, single point] | -45.9% | 16.4 µM [falling, single point]
CN(C)C(=O)c1ccc(NC(=O)COc2ccc([N+](=O)[O-])cc2)cc1 | 29.1 µM [rising, single point] | 47.7% | 29.1 µM [rising, single point]
COc1ccc(NC(=O)C2CCCN2C(=O)NC2CCCCC2)c(OC)c1 (stereo not drawn) | 4.11 µM [rising, single point] | 9.83% | –
Cc1ccc(-c2nc(CN(C)C)cc(CN(C)C)c2O)cc1 | 0.146 µM [falling, full curve, poor fit] | -59.4% | 29.1 µM [falling, single point]
CCCN(CC(=O)Nc1ccccc1C)C(=O)C1CCN(S(=O)(=O)c2ccccc2C(F)(F)F)CC1 | – | – | 2.59 µM [rising, partial curve]
O=C(CC1Oc2ccccc2NC1=O)NCCCN1CCCC1=O (stereo not drawn) | – | 9.4% | –
O=C(NC1CC1)C1CCN(C2CCN(C(=O)CSc3ccccc3)CC2)CC1 | – | 27.6% | –
O=C(N/N=C/c1cc2ccccc2nc1Cl)c1ccncc1 | – | 29.3% | 0.366 µM [rising, full curve, poor fit]
S=c1[nH]nc(CSCc2ccccc2Cl)n1-c1ccccc1 | 20.6 µM [rising, single point] | 31.6% | 8.2 µM [rising, partial curve, poor fit]
[O-][n+]1onc2c1CCc1c-2nc(-c2ccccc2)n1OCc1ccccc1 | 29.1 µM [rising, single point] | 24.7% | –
CC1Cc2cc(/C(O)=C3/C(=O)C(=O)N(CCN4CCOCC4)C3c3cccc(O)c3)ccc2O1 (stereo not drawn) | 0.259 µM [falling, partial curve, poor fit] | 2.86% | –
COc1ccc(N2CC(O)=C(c3nc(-c4ccc(Br)cc4)cs3)C2=N)cc1 | 29.1 µM [rising, single point] | 71% | 18.4 µM [rising, single point]
CC(C)(C)Nc1nc(C(N)=O)nc(N2CCOCC2)n1 | – | – | 0.82 µM [rising, single point]
O=C1C(=O)N(CCc2c[nH]c3ccccc23)C(c2cccnc2)/C1=C(/O)c1ccccc1 (stereo not drawn) | – | 18.1% | –
CC(NC(=O)c1ccco1)C(=O)N1CCCCC1 (stereo not drawn) | 0.082 µM [falling, full curve, poor fit] | -4.86% | –
O=C(NCc1ccco1)[C@@H]1CCCN1C(=O)c1cccs1 | – | -43.3% | 29.1 µM [falling, single point]
Cc1cc(C)c(Cc2c(C)nc3c(C(=O)NCc4ccco4)cnn3c2C)c(C)c1 | 5.17 µM [falling, partial curve] | – | –

SMILES | AC50 [1] | cell number change | AC50 [2]
O=C(COc1ccc(/C=N/NC(=O)c2ccc(O)cc2)cc1)Nc1ccc([N+](=O)[O-])cc1 | 5.17 µM [falling, single point] | -22.4% | 3.26 µM [falling, full curve, poor fit]
COc1ccc(C(CNC(=O)CCC(=O)c2ccc(C)s2)N2CCOCC2)cc1 (stereo not drawn) | 32.6 µM [falling, partial curve, poor fit] | -22.3% | 0.206 µM [falling, full curve, poor fit]
CC(OC(=O)c1cccs1)C(=O)NCc1cccs1 (stereo not drawn) | 5.8 µM [falling, single point] | 2.05% | –
COc1ccc(C(=O)N/C(=C\c2cn(C)c3ccccc23)C(=O)N2CCOCC2)cc1OC | 29.1 µM [falling, single point] | – | –
CONC(=O)C1CCN(C(=O)OCc2ccccc2)CC1 | 29.1 µM [falling, partial curve, poor fit] | -20.8% | –
Cc1csc(SCC(=O)N(C)C2CCS(=O)(=O)C2)n1 (stereo not drawn) | – | -16.9% | –
O=C(O)C(CCCCN1C(=O)C2C3C=CC(C3)C2C1=O)N1C(=O)C2C3C=CC(C3)C2C1=O (stereo not drawn) | 20.6 µM [falling, partial curve, poor fit] | -5.92% | –
O=P1(O)C=C(c2ccccc2)NC(c2ccccc2)=C1 | 0.58 µM [falling, single point] | -8.09% | 6.51 µM [falling, partial curve]
O=C(CN1CCC(NC(=O)c2ccccc2F)CC1)Nc1ccc2c(c1)OCO2 | – | -4.65% | –
CC(C)CCNC(=O)C1CCC(CNc2c(N3CCC(C)CC3)c(=O)c2=O)CC1 (stereo not drawn) | – | 8.02% | –
COc1ccc(N(CC(=O)Nc2nccs2)S(=O)(=O)c2c(C)[nH]c(=O)[nH]c2=O)cc1 | – | 40.4% | 20.6 µM [rising, single point]
CC(=C\c1ccccc1)/C=C1/SC(=O)N(CCCC(=O)Nc2ccc(C(=O)O)cc2)C1=O | – | -2.87% | 2.91 µM [falling, single point]
CNC(=O)/C=C1\NC(C)(C)Cc2ccccc21 | – | 68.8% | 23.1 µM [rising, single point]
S=c1[nH]nc(-c2ccccc2Cl)n1Cc1ccccc1 | – | -1.23% | –
CCN1CCN(C(=O)CN(C)S(=O)(=O)c2ccc3ccccc3c2)CC1 | – | 8.87% | –
CCn1c(SCC(=O)Nc2cccc(OC)c2)nc2c(c1=O)SCC2 | 14.6 µM [rising, partial curve] | 33% | 9.2 µM [rising, partial curve]
CCOC(=O)C1CCCN(C(=O)Cc2c(F)cccc2Cl)C1 (stereo not drawn) | 6.51 µM [falling, single point] | 3.31% | –
COc1ccc(S(=O)(=O)N2CCC(C(=O)N[C@@H](C)C(=O)NC3CCCC3)CC2)cc1 | 29.1 µM [rising, single point] | 2.66% | –
c1ccc(-n2nnnc2SCc2ccccn2)cc1 | – | 43.9% | 29.1 µM [rising, single point]
CCOc1cc(C#N)c(NC(=O)c2cccnc2Cl)cc1OCC | – | 27% | 1.84 µM [rising, full curve, poor fit]

SMILES | AC50 [1] | cell number change | AC50 [2]
Cc1nnc(SCc2cn3ccsc3n2)n(N)c1=O | 0.411 µM [falling, single point] | 37.7% | 5.8 µM [rising, partial curve, poor fit]
O=C(NNC(=O)C1C2CCC(C2)C1C(=O)O)c1cccc(Cl)c1 (stereo not drawn) | – | 28.5% | 6.51 µM [falling, single point]
COc1ccccc1C(=O)Nc1ccnn1C1CCN(Cc2ccn[nH]2)CC1 | 25.9 µM [falling, single point] | -14.2% | –
COc1ccc(CNC(=O)CN(C)S(=O)(=O)c2ccc(Br)s2)cc1 | 29.1 µM [rising, single point] | – | –
COc1ccc(CCNC(=O)CC(=O)N/N=C/c2ccc(C(=O)O)cc2)cc1OC | 0.206 µM [falling, full curve, poor fit] | 6.74% | –
Cc1cc(-c2cc(-c3ccc(Cl)cc3)on2)nc(NCC2CC2)n1 | 2.06 µM [rising, partial curve] | 15.8% | –
N#Cc1c(-c2ccc(Br)cc2)nc2n(c1=O)CCCS2 | 0.82 µM [rising, full curve] | – | 0.82 µM [rising, full curve]
Cc1cccc(OCC(=O)NNC(=O)C2CCN(c3ncnc4sc(C)c(C)c34)CC2)c1 | 4.11 µM [falling, single point] | – | 3.66 µM [falling, single point]
Fc1ccc(Br)cc1C1C=C(c2ccc(Br)cc2)Nc2ncnn21 (stereo not drawn) | 14.6 µM [rising, partial curve, poor fit] | – | 0.092 µM [rising, full curve, poor fit]
COc1ccc(Cl)cc1N(C(=O)Nc1cccc(Cl)c1)C1=NCC(C)S1 (stereo not drawn) | 0.731 µM [falling, single point] | 2.9% | –
c1ccc(-c2noc(-c3cccnc3)n2)nc1 | 14.6 µM [rising, partial curve] | 92.7% | 20.6 µM [rising, partial curve]
NS(=O)(=O)c1ccc(NC(CNS(=O)(=O)c2ccccc2)c2ccccc2)cc1 (stereo not drawn) | 29.1 µM [rising, single point] | – | –
CN(N)C(=S)NCc1ccccc1 | 29.1 µM [falling, single point] | -40% | 0.00461 µM [falling, full curve, poor fit]
Cc1ccc([C@@H]2[C@@H]3C(=O)N(C)C(=O)[C@@H]3[C@]3(C)C(=O)N(CC4CC4)CC(=O)N23)o1 | 0.58 µM [rising, single point] | 24% | –
O=c1[nH]nc(Cc2ccccc2)c2ccccc12 | 0.731 µM [rising, partial curve, poor fit] | 44.7% | 2.31 µM [rising, partial curve]
CCC(=O)N1c2ccc(S(=O)(=O)N3CCCC3)cc2CC1C (stereo not drawn) | – | 2.83% | –
Cc1ccc(S(=O)(=O)NN)c(C)c1N1CCCC1=O | – | 17.2% | –
O=C(Cc1ccsc1)NNC(=O)c1cccc(Cl)c1 | – | -2.16% | –
CC(C)c1ccc(N(CC(=O)N2CCN(Cc3ccccc3)CC2)S(C)(=O)=O)cc1 | – | -9.12% | 0.13 µM [rising, partial curve, poor fit]

Reprinted at random: two entries already listed, in no set order.
SMILES | AC50 [1] | cell number change | AC50 [2]
CCC(=O)N1c2ccc(S(=O)(=O)N3CCCC3)cc2CC1C (stereo not drawn) | – | 2.83% | –
CN(N)C(=S)NCc1ccccc1 | 29.1 µM [falling, single point] | -40% | 0.00461 µM [falling, full curve, poor fit]
